PubChem BioAssay AID652243 – Drosophila RNAi Screening Center, 2013

Test: 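Knock-downs that decrease or increase androgen receptor reporter signal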 (primary screen)
Cells: Drosophila S2R+ cells
Knock-down reagent: long dsRNA against Drosophila genes
Time to read-out: 72 h (48 h, then 24 h hormone)
Treatment: synthetic androgen R1881 at 10 nM for 24 h
Detection: 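Firefly light from an androgen-responsive reporter and Renilla control light per well, raw and unnormalised, for each of two replicates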
Reading the numbers: firefly reporter light: higher = more light from androgen-responsive reporter; Renilla control light: higher = more constitutive control signal (cell number, transfection)
Rule for the call: 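Hit when the log firefly-to-Renilla ratio dropped or increased by a fixed fold versus the mean of GFP or LacZ controls across duplicate plates; lowering cut given as 1.5 and as 3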
Calls: active = hit: reporter lowered or raised; inactive = no hit
The deposit covers about 24,000 reagents; shown is a random part of those that have a named target and a result. Of all reagents, 246 (1%) were called active. 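Plates not normalised; calls are printed but the firefly/Renilla ratio behind them is not deposited; fold cut for lowering reported inconsistently.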 The raw values are shown without normalisation. Reagents against one gene are numbered here. Names joined by + are all predicted targets of the reagent. The record does not give: the amount of reagent.

With Gcn2 + PNPase, what does the deposit list?
Call: inactive

What did the screen give for CG18558?
firefly reporter light, replicate 1: 4.20e5; firefly reporter light, replicate 2: 5.27e5; Renilla control light, replicate 1: 1.46e6; Renilla control light, replicate 2: 2.56e6; Call: inactive

For CG31211 #1, how do the results read?
firefly reporter light, replicate 1: 3.07e5; firefly reporter light, replicate 2: 3.10e5; Renilla control light, replicate 1: 2.19e6; Renilla control light, replicate 2: 2.65e6; Call: inactive

What did the screen give for CG31211 #2?
firefly reporter light, replicate 1: 1.26e5; firefly reporter light, replicate 2: 1.35e5; Renilla control light, replicate 1: 1.90e6; Renilla control light, replicate 2: 1.95e6; Call: inactive

With CG31211 #3, what does the deposit list?
firefly reporter light, replicate 1: 6.14e5; firefly reporter light, replicate 2: 8.19e5; Renilla control light, replicate 1: 1.06e6; Renilla control light, replicate 2: 1.21e6; Call: inactive

With Peritrophin-15a #1, what does the deposit list?
firefly reporter light, replicate 1: 2.10e5; firefly reporter light, replicate 2: 2.84e5; Renilla control light, replicate 1: 2.42e6; Renilla control light, replicate 2: 2.22e6; Call: inactive

With Peritrophin-15a #2, what does the deposit list?
firefly reporter light, replicate 1: 5.73e5; firefly reporter light, replicate 2: 4.86e5; Renilla control light, replicate 1: 1.44e6; Renilla control light, replicate 2: 1.46e6; Call: inactive

With E(Pc) (Enhancer of Polycomb) #1, what does the deposit list?
firefly reporter light, replicate 1: 1.99e5; firefly reporter light, replicate 2: 2.29e5; Renilla control light, replicate 1: 3.73e5; Renilla control light, replicate 2: 3.97e5; Call: inactive

Which result is listed for E(Pc) (Enhancer of Polycomb) #2?
firefly reporter light, replicate 1: 2.60e5; firefly reporter light, replicate 2: 1.96e5; Renilla control light, replicate 1: 1.20e6; Renilla control light, replicate 2: 1.17e6; Call: inactive

Laid out differently: 3 of the entries above
| Gene | dsRNA no. | firefly reporter light, replicate 1 | firefly reporter light, replicate 2 | Renilla control light, replicate 1 | Renilla control light, replicate 2 | Call |
| --- | --- | --- | --- | --- | --- | --- |
| CG31211 | 3 | 6.14e5 | 8.19e5 | 1.06e6 | 1.21e6 | inactive |
| Peritrophin-15a | 1 | 2.10e5 | 2.84e5 | 2.42e6 | 2.22e6 | inactive |
| Peritrophin-15a | 2 | 5.73e5 | 4.86e5 | 1.44e6 | 1.46e6 | inactive |

Continued.
With aralar1 #1, what does the deposit list?
firefly reporter light, replicate 1: 2.08e6; firefly reporter light, replicate 2: 1.42e6; Renilla control light, replicate 1: 3.71e6; Renilla control light, replicate 2: 1.67e6; Call: inactive

What did the screen give for aralar1 #2?
firefly reporter light, replicate 1: 1.23e5; firefly reporter light, replicate 2: 89990; Renilla control light, replicate 1: 5.09e5; Renilla control light, replicate 2: 4.41e5; Call: inactive

For aralar1 #3, how do the results read?
firefly reporter light, replicate 1: 4.60e5; firefly reporter light, replicate 2: 4.01e5; Renilla control light, replicate 1: 9.84e5; Renilla control light, replicate 2: 1.46e6; Call: inactive

For CG12479, what was measured?
firefly reporter light, replicate 1: 7.81e5; firefly reporter light, replicate 2: 7.21e5; Renilla control light, replicate 1: 3.25e6; Renilla control light, replicate 2: 3.36e6; Call: inactive

Which result is listed for Pgant9 (Polypeptide N-Acetylgalactosaminyltransferase 9) #1?
firefly reporter light, replicate 1: 1.39e5; firefly reporter light, replicate 2: 1.59e5; Renilla control light, replicate 1: 3.58e5; Renilla control light, replicate 2: 3.46e5; Call: inactive

What did the screen give for Pgant9 (Polypeptide N-Acetylgalactosaminyltransferase 9) #2?
firefly reporter light, replicate 1: 1.53e5; firefly reporter light, replicate 2: 1.44e5; Renilla control light, replicate 1: 2.38e6; Renilla control light, replicate 2: 2.38e6; Call: inactive

With Pgant9 (Polypeptide N-Acetylgalactosaminyltransferase 9) #3, how do the results read?
firefly reporter light, replicate 1: 1.44e5; firefly reporter light, replicate 2: 1.22e5; Renilla control light, replicate 1: 2.63e6; Renilla control light, replicate 2: 2.63e6; Call: inactive

Which result is listed for Pgant9 (Polypeptide N-Acetylgalactosaminyltransferase 9) #4?
firefly reporter light, replicate 1: 96517; firefly reporter light, replicate 2: 1.26e5; Renilla control light, replicate 1: 1.62e6; Renilla control light, replicate 2: 1.62e6; Call: inactive

With Pgant9 (Polypeptide N-Acetylgalactosaminyltransferase 9) #5, how do the results read?
firefly reporter light, replicate 1: 1.67e5; firefly reporter light, replicate 2: 1.48e5; Renilla control light, replicate 1: 3.01e6; Renilla control light, replicate 2: 3.01e6; Call: inactive

With Pgant9 (Polypeptide N-Acetylgalactosaminyltransferase 9) #6, how do the results read?
firefly reporter light, replicate 1: 1.15e5; firefly reporter light, replicate 2: 1.14e5; Renilla control light, replicate 1: 1.74e6; Renilla control light, replicate 2: 1.74e6; Call: inactive

What is on record for hpRNA:CR32205 (hairpin RNA:CR32205) #1?
firefly reporter light, replicate 1: 2.12e5; firefly reporter light, replicate 2: 2.37e5; Renilla control light, replicate 1: 3.23e5; Renilla control light, replicate 2: 3.87e5; Call: inactive

For hpRNA:CR32205 (hairpin RNA:CR32205) #2, what was measured?
firefly reporter light, replicate 1: 2.05e5; firefly reporter light, replicate 2: 2.81e5; Renilla control light, replicate 1: 2.46e6; Renilla control light, replicate 2: 3.10e6; Call: inactive

For hpRNA:CR32205 (hairpin RNA:CR32205) #3, what was measured?
firefly reporter light, replicate 1: 5.73e5; firefly reporter light, replicate 2: 4.95e5; Renilla control light, replicate 1: 1.67e6; Renilla control light, replicate 2: 1.43e6; Call: inactive
